Results from the supplement of paper PMC5407854, “Inhibitor of ppGalNAc-T3-mediated O-glycosylation blocks cancer cell invasiveness and lowers FGF23 levels” (eLife, 2017).
This is one part of the list. Most values lie at the level of the controls, where differences are scatter.

Legend:
ppGalNAc-T3 sensor = experiment: T3 sensor activation Q score (MG/GFP ratio z-score vs DMSO controls) (SD units); higher = more sensor activation (inhibition of ppGalNAc-T3 glycosylation); conditions: HEK293 sensor cells; 10 µM; 6 h
Experimental: (§1)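 Cells were treated with compound at 10 uM for 6 h, then MG/GFP ratio was read by flow cytometry (10,000 cells per well, duplicate wells). Q = (R - R_neg)/SD_neg relative to DMSO vehicle controls; the signal rises when the glycosyltransferase is inhibited.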

ppGalNAc-T2 sensor = experiment: T2 sensor activation Q score (MG/GFP ratio z-score vs DMSO controls) (SD units); higher = more sensor activation (inhibition of ppGalNAc-T2 glycosylation); conditions: HEK293 sensor cells; 10 µM; 6 h
Experimental: as §1

Row | Compound | T3 sensor activation Q score (ppGalNAc-T3 sensor) | T2 sensor activation Q score (ppGalNAc-T2 sensor)
1 | CC(=O)N(C1=C(N2CCCC2)C(=O)c2ccccc2C1=O)c1cccc(Cl)c1 | -0.285 | -0.29
2 | COc1cccc(CN2CCSCC2)c1OC | 0.155 | 0.405
3 | O=C(Nc1ccc(S(=O)(=O)Nc2nccs2)cc1)C12CC3CC(CC(C3)C1)C2 | -0.115 | 0.195
4 | OC(CN1CCCCCC1)CN(c1ccccc1)c1ccccc1 (stereo not drawn) | 0.555 | 0.99
5 | CCCn1ncc(OC)c(Cl)c1=O | -0.49 | 1.44
6 | COc1ccccc1C(=O)Nc1ccc2oc(-c3ccccc3C)nc2c1 | -0.78 | -0.295
7 | CCN(C/C=C/c1ccccc1)CCN(C)C | 0.545 | 0.53
8 | O=S(=O)(NCc1ccccc1)c1ccc(Cl)cc1 | 0.24 | -0.605
9 | COc1ccc(S(=O)(=O)Nc2ccc3oc(C)c(C(C)=O)c3c2)cc1 | -0.405 | -0.16
10 | Fc1ccccc1CN1CCN(c2ncccn2)CC1 | 0.725 | -0.71
11 | CN(CC(=O)O)c1ccccc1C(=O)O | -0.945 | -1.48
12 | CCNCC(O)CN1CCC(C)CC1 (stereo not drawn) | 0.155 | 0.035
13 | COc1ccc(C(=O)N2CCCC2)cc1OC | 0.235 | 0.075
14 | CC(=O)c1cccc(NC(=O)COc2cc(C)ccc2C(C)C)c1 | -0.255 | -0.115
15 | CN(C)c1ccc(C2C(=C(O)c3ccccc3)C(=O)C(=O)N2C)cc1 (stereo not drawn) | 0.26 | -0.38
16 | O=C(Nc1cc(Cl)ccc1Cl)c1ccncc1 | 0.18 | 0.205
17 | CCc1ccccc1NC(=O)c1ccc(C(C)(C)C)cc1 | -0.17 | -0.875
18 | Nn1cnc2scc(-c3ccccc3)c2c1=O | 0.415 | 0.08
19 | COc1cc2c(cc1OC)C(c1ccccc1[N+](=O)[O-])N(C(C)=O)CC2 (stereo not drawn) | -0.08 | -1.47
20 | CC(=O)c1cc(F)c(N2CCN(C(=O)c3c(F)cccc3F)CC2)cc1C | -1.9 | 0.25
21 | COc1ccccc1N1CCN(Cc2ccc(C(=O)O)cc2)CC1 | -0.13 | 0.3
22 | Cc1cccc(N2CCN(Cc3ccoc3)CC2)c1C | 0.265 | 0.105
23 | CCOc1ccc2nc(SCC)[nH]c2c1 | 1 | 0.725

Row | Compound | T3 sensor activation Q score (ppGalNAc-T3 sensor) | T2 sensor activation Q score (ppGalNAc-T2 sensor)
24 | CCN(C1CCCCC1)S(=O)(=O)c1ccc(OC)c(OC)c1 | 0.12 | 0.29
25 | COc1cc2c(cc1OC)CN(Cc1ccc(NC(C)=O)cc1)CC2 | 0.235 | 0.04
26 | Cc1ccc(C)c(NS(C)(=O)=O)c1 | 0.02 | -0.275
27 | Cc1ccccc1-c1nnn(Cc2ccc(F)cc2Cl)n1 | 0.6 | -0.47
28 | Clc1ccc(CNC2CCN(Cc3ccccc3)CC2)cc1 | -0.145 | -0.06
29 | COc1cc(OC)c(OC)cc1CNC1C2CC3CC(C2)CC1C3 (stereo not drawn) | -0.085 | 0.225
30 | CCN(Cc1ccccc1)Cc1c(F)cccc1F | 0.365 | -0.365
31 | COc1ccc(CN2CCSCC2)cc1O | -0.01 | 0.095
32 | Cc1cccc(NC(=O)Cc2ccc(-c3ccccc3)cc2)c1C | 0.79 | -0.035
33 | CC12CC3(C)CC(C)(C1)CC(C(=O)NN)(C2)C3 | 2.65 | -0.51
34 | CC(C)(C)S(=O)(=O)c1cccs1 | 0.25 | -0.705
35 | CC(=O)Nc1cccc(C(=O)Nc2ccccc2Cl)c1 | -0.515 | -0.3
36 | Cc1ccc(S(=O)(=O)c2ccc(-c3ccc([N+](=O)[O-])cc3)cc2)cc1 | 0.165 | 0.27
37 | CCc1ccc(S(=O)(=O)Nc2ccc([N+](=O)[O-])cc2C)cc1 | 0.41 | -0.465
38 | CCC(C)Sc1nc(O)c(Cc2ccccc2)c(=O)[nH]1 (stereo not drawn) | 0.07 | -0.855
39 | CC(=O)C1=C(O)C(=O)N(C)C1c1ccc(F)cc1 (stereo not drawn) | 0.17 | -0.465
40 | COc1ccc(NS(=O)(=O)c2ccc(Cl)cc2)cc1 | -0.47 | 0.41
41 | O=C(Nc1cccc(Cl)c1)c1cccc(Br)c1 | 0.245 | -0.74
42 | CCN(CCN(C)C)Cc1ccccc1Cl | 0.175 | 0.82
43 | NC(=O)C1CCN(C2CC(=O)N(c3cccc(Cl)c3)C2=O)CC1 (stereo not drawn) | 0.08 | 0.165
44 | CCN(CCN(C)C)Cc1ccc(Cl)c(Cl)c1 | 0.61 | 0.415
45 | O=C(Nc1ccc(Cl)cc1Cl)c1cnccn1 | -0.285 | 0.78
46 | COc1nc(Nc2cc(Cl)ccc2OC)nc(OC)n1 | 1.24 | 0.4

Row | Compound | T3 sensor activation Q score (ppGalNAc-T3 sensor) | T2 sensor activation Q score (ppGalNAc-T2 sensor)
47 | CCOc1cc(CNc2ccc3c(c2)CCC3)ccc1O | 0.465 | -0.2
48 | CN1CCN(C(=O)c2ccc(S(=O)(=O)N3CCOCC3)cc2)CC1 | 0.31 | -0.1
49 | COc1ccc(NC(=O)N2CCN(C)CC2)cc1 | 0.615 | -1.16
50 | O=C(NCc1cccnc1)Nc1cccc(Cl)c1 | 0.135 | 0.1
51 | Cc1ccsc1CN1CCN(c2ccc(Cl)cc2)CC1 | 0.255 | 0.105
52 | CN(C)CCOC(c1ccccc1)c1ccc(Cl)cc1 (stereo not drawn) | 0.395 | 0.99
53 | COc1ccccc1N1C(=O)CC(N(C)Cc2ccccc2)C1=O (stereo not drawn) | -0.705 | -1.29
54 | CC1Cc2c([nH]c3ccccc23)C(=O)N1 (stereo not drawn) | 1.07 | -0.97
55 | CCCCNS(=O)(=O)c1ccccc1 | -0.015 | -0.72
56 | CC(=O)Nc1ccc(NC2=C(N3CCCCC3)C(=O)c3ccccc3C2=O)cc1 | 0.08 | 1.22
57 | O=C(NCCC1=CCCCC1)c1ccc(CN2CCOCC2)cc1 | 1.35 | 0.38
58 | O=C(COc1ccc(Cl)cc1Cl)Nc1ccccc1F | 0.27 | -0.395
59 | O=C(CSc1nc2ccccc2s1)c1ccccc1 | -0.015 | 0.465
60 | CCOC(=O)N1CCN(Cc2ccc(Cl)cc2)CC1 | 0.215 | 0.805
61 | Cc1ccc(C(O)=C2C(=O)C(=O)N(C)C2c2ccc(F)cc2)cc1 (stereo not drawn) | 0.45 | -0.52
62 | CN(Cc1ccccc1)Cc1c(F)cccc1F | 0.44 | 0.44
63 | COc1ccc(C)cc1NC(=O)C(c1ccccc1)c1ccccc1 | -0.42 | -1.16
64 | CCCc1nc(-c2ccc(-c3ccc(F)cc3)cc2)no1 | -0.795 | -0.87
65 | COc1ccc(CN2CCN(Cc3ccc4c(c3)OCO4)CC2)cc1 | -0.23 | 0.12
66 | COc1cc(S(=O)(=O)N2CCC(C)CC2)c(OC)cc1Cl | 1.67 | 0.105
67 | Clc1ccc(-c2cn3ccsc3n2)cc1 | 0.38 | 0.665
68 | Cc1ccc2c(N)c(C(=O)c3ccc(Cl)cc3)sc2n1 | 0.64 | -0.225
69 | CC1CN(CCC(C)c2ccccc2)CC(C)O1 (stereo not drawn) | 0.565 | 0.325

Row | Compound | T3 sensor activation Q score (ppGalNAc-T3 sensor) | T2 sensor activation Q score (ppGalNAc-T2 sensor)
70 | CSc1nnc(-c2ccccc2Cl)o1 | 0.015 | 0.735
71 | O=C(O)CCCNC1=NCCC1 | 0.37 | 0.185
72 | O=c1[nH]c(=O)c2c(-c3ccccc3)csc2[nH]1 | -0.405 | -0.575
73 | COc1ccc2c(c1C)CCC(C1(O)C(=O)Nc3ccccc31)C2=O (stereo not drawn) | 0.235 | -0.495
74 | CC1(C)CC(=O)C=C(Nc2ccc(C(=O)O)cc2)C1 | -0.385 | -0.235
75 | CN1CCN(C(=O)c2ccccc2[N+](=O)[O-])CC1 | -0.02 | -0.125
76 | CC(C)(C)n1ncc(O)c(Cl)c1=O | -0.475 | -0.19
77 | COc1ccc(OC)c(NC(=O)C(c2ccccc2)c2ccccc2)c1 | 0.355 | -0.14
78 | COc1ccc(C(=O)N2CCN(C(=O)c3ccco3)CC2)cc1 | 0.71 | -1.33
79 | O=C(NCCCCc1ccccc1)c1ccccc1F | 0.26 | -0.99
80 | COc1cc(NC(=O)Cc2ccccc2)c(OC)cc1Cl | -0.215 | -0.02
81 | O=C1CC(N2CCOCC2)C(=O)N1c1cccc(Cl)c1 (stereo not drawn) | 0.95 | -0.06
82 | C/C(=C\c1ccccc1)CN(C)CCN(C)C | 0.635 | 0.315
83 | NNC(=O)c1sc2cccc(Cl)c2c1Cl | -0.46 | -0.26
84 | Cc1ccc(-n2cnnn2)cc1Cl | 0.28 | -0.52
85 | COc1ccc(C2NC(=O)C(=O)C2=C(O)c2ccccc2)cc1 (stereo not drawn) | -0.5 | 0.135
86 | O=C(Nc1cccc(Cl)c1Cl)C12CC3CC(CC(C3)C1)C2 | 0.42 | 0.985
87 | COc1ccc(CN2CCN(c3cccc(C)c3C)CC2)c(OC)c1 | 0.185 | 1.12
88 | Fc1ccc(CN2CCN(c3ncccn3)CC2)c(F)c1 | 0.48 | 0.7
89 | CCCC1(O)CC(c2ccccc2)NC(c2ccccc2)C1C (stereo not drawn) | -0.015 | -0.945
90 | O=C(NC1CCCCCC1)C1CCNCC1 | 0.14 | -0.74
91 | Cc1cccc(C)c1NC(=O)NC1CCCCC1 | 0.455 | 0.37
92 | CN1CCN(C(=O)c2ccc(Cl)cc2)CC1 | 1.25 | -1.28

Row | Compound | T3 sensor activation Q score (ppGalNAc-T3 sensor) | T2 sensor activation Q score (ppGalNAc-T2 sensor)
93 | CCc1ccc(CN2CCC(O)CC2)cc1 | 0.27 | 0.06
94 | C=CCN1C(=O)C(O)=C(C(C)=O)C1c1ccccc1F (stereo not drawn) | 0.405 | 0.265
95 | Cc1cc(C)cc(C(=O)c2ccccc2C(=O)O)c1 | 0.11 | -0.56
96 | CCC1CCCCN1S(=O)(=O)c1cc(C)c(C)cc1OC (stereo not drawn) | 0.875 | 0.415
97 | CCN(CC)C(=O)C1CCCN(Cc2ccccc2C)C1 (stereo not drawn) | -0.19 | 0.05
98 | NC(=O)C1CCN(Cc2ccc(Br)cc2)CC1 | 0.23 | -0.12
99 | O=C(Nc1ccccc1)Oc1ccccc1Br | -0.315 | 2.27
100 | CN1CCCN(Cc2ccccc2)CC1 | 0.695 | -0.44
101 | Cc1ccc(C)c(NCC(=O)Nc2c(C)cccc2C)c1 | -0.135 | -1.06
102 | O=C(NCc1ccco1)c1ccc([N+](=O)[O-])cc1 | 0.305 | 0.415
103 | O=C(CCCOc1ccc(Cl)cc1Cl)NO | -0.585 | 0.45
104 | CC(O)C#CC1(C)CCCC(C)(C)O1 (stereo not drawn) | 0.49 | 0.03
105 | CCOc1ccccc1CN1CCc2ccccc2C1 | 0.34 | 0.795
106 | CN(C)CCNc1ccc([N+](=O)[O-])cc1Cl | 0.65 | 0.12
107 | Cc1ccc(S(=O)(=O)N=C2CN(C)C(=O)N2C)cc1 | -0.86 | -0.17
108 | O=C(Nc1cccc(Cl)c1)N1CCCCC1 | 1.09 | 1.52
109 | CN(C)CCN(C)Cc1ccc(Cl)cc1Cl | 1.16 | 1.77
110 | CCCN1CCC(NCc2cccc(Cl)c2)CC1 | 0.415 | -0.675
111 | COc1ccc(OCCOc2ccc(C)cc2OC)cc1 | -0.985 | -0.11
112 | COc1c2ccoc2nc2c(OC)cccc12 | 0.06 | 0.155
113 | CC1CC(Nc2ccccc2)c2ccccc2N1C(=O)c1ccco1 (stereo not drawn) | -0.13 | 0.045
114 | CC(=O)c1cc(F)c(N2CCN(C(=O)c3ccccc3F)CC2)cc1C | 0.12 | -0.19

One compound at a time, as listed above:
CC(O)C#CC1(C)CCCC(C)(C)O1 (stereo not drawn) as listed: T3 sensor activation Q score (ppGalNAc-T3 sensor): 0.49; T2 sensor activation Q score (ppGalNAc-T2 sensor): 0.03
CN(C)CCNc1ccc([N+](=O)[O-])cc1Cl as listed: T3 sensor activation Q score (ppGalNAc-T3 sensor): 0.65; T2 sensor activation Q score (ppGalNAc-T2 sensor): 0.12
CCc1ccc(CN2CCC(O)CC2)cc1 as listed: T3 sensor activation Q score (ppGalNAc-T3 sensor): 0.27; T2 sensor activation Q score (ppGalNAc-T2 sensor): 0.06
